# Library screening results

Amino acid sequences for entries named in this document (tags omitted).
UniProt E9BF75, entry or part of it: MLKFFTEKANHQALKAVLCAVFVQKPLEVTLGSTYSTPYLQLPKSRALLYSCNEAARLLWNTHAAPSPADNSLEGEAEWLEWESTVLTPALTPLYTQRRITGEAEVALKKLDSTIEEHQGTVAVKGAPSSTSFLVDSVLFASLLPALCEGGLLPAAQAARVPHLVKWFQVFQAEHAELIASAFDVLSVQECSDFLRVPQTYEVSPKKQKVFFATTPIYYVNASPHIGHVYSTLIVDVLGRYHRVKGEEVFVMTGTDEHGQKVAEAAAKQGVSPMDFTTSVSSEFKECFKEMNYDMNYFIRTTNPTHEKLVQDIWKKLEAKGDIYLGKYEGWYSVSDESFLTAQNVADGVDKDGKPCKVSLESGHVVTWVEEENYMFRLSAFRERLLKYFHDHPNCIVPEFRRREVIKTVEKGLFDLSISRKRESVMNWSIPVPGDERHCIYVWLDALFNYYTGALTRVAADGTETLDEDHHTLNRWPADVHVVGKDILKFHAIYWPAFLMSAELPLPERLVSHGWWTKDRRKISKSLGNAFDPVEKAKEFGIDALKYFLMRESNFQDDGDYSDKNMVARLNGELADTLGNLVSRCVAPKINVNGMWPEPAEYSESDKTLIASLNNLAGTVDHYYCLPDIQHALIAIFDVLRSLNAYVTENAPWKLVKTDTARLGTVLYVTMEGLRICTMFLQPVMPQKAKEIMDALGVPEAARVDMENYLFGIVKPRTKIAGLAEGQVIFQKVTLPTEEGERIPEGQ

All values are in %. The controls that fix the scale are not given in the record; negative values are as filed. Compounds were drawn at random from those tested, without regard to their results. A dash means the value is not listed here; it may have been measured.

LdMetRS: 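Methionyl-tRNA synthetase (putative), Leishmania donovani (UniProt E9BF75). Primary screen of methionyl-tRNA synthetase; the read-out is not stated. The test concentration is not given. The values are filed as inhibition. Size under these conditions: about 68,000 compounds, about 24 of them at 50% or above in at least one test.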
Mtb heat-shock: 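Assay on Mycobacterium tuberculosis, filed only as a heat shock assay from Cornell; the read-out is not stated. The concentration is filed as 10 mM, unlikely as a test dose, so the dose is not known. The record gives no direction; compounds that gave an IC50 in retests scored well above the rest, so higher reads as stronger inhibition. Of about 69,000 compounds tested this way, about 930 (1.4%) reached 50% or more in at least one test.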

SMILES,LdMetRS,Mtb heat-shock
O=C(O)C(F)(F)F.O=C(O)C(F)(F)F.[H][C@@]12CN(CCOC)C[C@]1([H])[C@@H](OC)CCN2Cc1ccco1,-,-15.35%
CCC(O)C1CCN(C(=O)Nc2nc(-c3ccccc3)ns2)CC1 (stereo unspecified),-1.031%,9.366%
[H][C@@]12C[C@H](C(=O)N3CCCCO3)CN(C(=O)c3ccnnc3)[C@]1([H])CCO2,-,-23.84%
Cc1c(NCc2ccccc2C#N)cccc1-n1cnnn1,-1.781%,16.44%
CC1CCN(C(=O)[C@H]2CC[C@@H]3[C@@H](CCN3Cc3nccs3)O2)CC1,3.526%,-
Cc1ccc(CN2CCN(C3CCCC3)CC2CCO)o1 (stereo unspecified),5.602%,-25.4%
O=C(C1CC1)N1CCC2(CCN2Cc2ccc(F)cc2)C1 (stereo unspecified),0%,-
Cc1cc(CC(=O)N2CCCC2c2nc(C(C)C)no2)on1 (stereo unspecified),7.965%,-19.22%
c1cnc(N2CCO[C@H]3CN(Cc4cc[nH]n4)C[C@H]32)cn1,6.569%,-
CCc1nc2n(n1)CC(NCc1ncc(-c3ccccc3)o1)CC2 (stereo unspecified),10.24%,-17.15%
CN(C)[C@@H]1CCN(C(=O)Cc2cccs2)[C@H]1Cc1ccncc1,0.995%,-
Cc1ccc(C(=O)NCC(C)Cn2ccnc2C)c(=O)[nH]1 (stereo unspecified),13.92%,-30.12%
Cc1ccc(S(=O)(=O)N2CCN(C)c3ccncc32)cc1F,7.914%,-13.16%
O=C(NC[C@H]1OC[C@@H](NC2COC2)[C@@H]1O)Nc1ccccc1,7.119%,-2.443%
O=C(N[C@@H]1CC[C@@H](N2CCCC2)[C@@H]1O)c1cc2cccc(F)c2[nH]1,12.07%,-8.841%
[H][C@@]12CS(=O)(=O)C[C@]1([H])N(Cc1nc3ccccc3[nH]1)CCN2CC=C(C)C,-,6.375%
Cc1nn(C)c(N(C)C)c1CNC1CCc2cc(F)ccc21.Cl (stereo unspecified),-,-28.69%
O=C(c1cccnc1N1CCOCC1)N1CCCC1Cn1cccn1 (stereo unspecified),11.81%,-8.114%
CCS(=O)(=O)c1ncc(CN(C)Cc2ccccc2Cl)n1CCOC,-0.6689%,7.96%
[H][C@]12CCCC[C@]1([H])N(C(=O)C1CCOCC1)CC[C@@]2(O)c1ccccc1,-,-19.75%
CCc1nc(C2CCCN2C(=O)c2csc(NC(C)=O)n2)no1 (stereo unspecified),15.06%,0.3739%
CN(C)CCOCc1nnc2n1CCN(Cc1ccc(F)cc1)CC2,5.205%,-
CCC(C)N(Cc1ccc(C)cc1)Cc1c[nH]c(C)n1 (stereo unspecified),8.052%,4.985%
CCS(=O)(=O)CC(=O)NC1(c2ccc(Cl)c(Cl)c2)CC1,6.522%,19.38%
CCCc1nc(C(C)(C)NC(=O)C2CC(=O)N(C3CCCC3)C2)no1 (stereo unspecified),20.11%,-5.253%
Cl.O=C(Nc1ccccc1F)C1=NOC2(CCNCC2)C1,-,0.377%
CC(C)c1nc(C2CCCN2CC(=O)Nc2nncs2)no1 (stereo unspecified),13.99%,-2.787%
CNc1cc(C)nc(N2CCC3(CC2)[C@H](O)C[C@@H]3OC)n1,15.04%,-5.649%
Cc1ccsc1CN(C)C(=O)c1ccc(N2CCOCC2)c(F)c1,-4.935%,0.8256%
Cc1nn(CC(=O)NCC2(C(N)=O)CCOCC2)c(C)c1Cl,19.68%,12.12%
CC(O)CN1CCC(CNCc2cccc(OC(F)(F)F)c2)CC1 (stereo unspecified),21.05%,-16.66%
Cc1ccc(-c2ccc(=O)n(CC(=O)Nc3nccs3)n2)cc1,5.519%,-15.78%
CCc1n[nH]c(C2CN(Cc3csc(COC)n3)CCO2)n1 (stereo unspecified),8.807%,15.05%
Cc1nc(C2CN(Cc3scnc3C)CCO2)cc(N(C)C)n1 (stereo unspecified),10.97%,-20.95%
CC(C)c1cc(NC2CCCN(C(=O)c3cccs3)C2)ncn1 (stereo unspecified),0.7692%,7.925%
Cc1noc2nc(C3CCN(Cc4ccncc4)CC3)cc(C(F)F)c12,5.822%,-28.23%
COc1ccc(NC(=O)C2CC(=O)n3cnnc3S2)cc1 (stereo unspecified),11.8%,38.36%
Fc1ccc2c(c1)C1(CCNCC1)CC2OCC1CC1 (stereo unspecified),8.511%,26.68%
O=c1cc(Cn2cncn2)nc2n1CCCN(Cc1ccco1)C2,14.79%,-21.9%
[H][C@@]12CCN(C3CCOCC3)C[C@]1([H])O[C@H](C(=O)N1CCOCC1)C2,-,6.371%
CC(C)(C)c1nc(CNc2ccccc2SCCC(N)=O)cs1,16.17%,-8.201%
Cc1csc(N2CCN(C(=O)CCc3ccccn3)CC2)n1,17.65%,26.62%
O=C(c1cccnc1O)N(CCO)Cc1cc(Br)ccc1F,13.94%,2.98%
Cc1nccc(-c2cccc(NCC(=O)NCC(=O)N3CCCC3)c2)n1,28%,3.19%
CCN(Cc1ccncc1)C1CCN(c2ccccc2)C1=O (stereo unspecified),4.19%,14.1%
CCCC(Nc1c(C#N)c(=O)n(C)c(=O)n1C)c1ccc(F)cc1F (stereo unspecified),9.859%,2.034%
Cn1nccc1C(=O)N1CCC2(CC1)COC(COc1ccccn1)C2 (stereo unspecified),13.73%,-
COCCn1c(-c2cccc(OC)c2)cnc1NC(=O)NC(C)C,18.66%,-1.738%
Cc1nc(CN2CCN(C(=O)C(c3ccccc3C)N(C)C)CC2)no1 (stereo unspecified),14.2%,9.156%
Cc1cc(CCC(N)=O)cc(C2CCCN2Cc2ccccn2)n1 (stereo unspecified),9.709%,25.71%
COC(=O)c1ccc(N2CCN(C(=O)c3cnn(C)c3)C(C)C2)cc1 (stereo unspecified),7.981%,-27.99%
COc1ccccc1OCCN(C)c1cc(C)nc(N)n1,3.876%,-35.03%
O[C@@]1(CNCC2(Cn3ccnc3)CC2)CCCN2CCCC[C@@H]21,8.657%,-
CC(C)N1CCCC(CN(C)c2ccc(Cn3ccnc3)cn2)C1 (stereo unspecified),8.591%,-4.084%
CC(O)CN1CCC(CNCc2c[nH]nc2C(C)(C)C)CC1 (stereo unspecified),-0.6536%,0.7064%
CNC(=O)CN1CCOCC2(CCCN(Cc3cccnc3)C2)C1 (stereo unspecified),11.43%,-

The first 4 entries again:

SMILES,LdMetRS,Mtb heat-shock
O=C(O)C(F)(F)F.O=C(O)C(F)(F)F.[H][C@@]12CN(CCOC)C[C@]1([H])[C@@H](OC)CCN2Cc1ccco1,-,-15.35%
CCC(O)C1CCN(C(=O)Nc2nc(-c3ccccc3)ns2)CC1 (stereo unspecified),-1.031%,9.366%
[H][C@@]12C[C@H](C(=O)N3CCCCO3)CN(C(=O)c3ccnnc3)[C@]1([H])CCO2,-,-23.84%
Cc1c(NCc2ccccc2C#N)cccc1-n1cnnn1,-1.781%,16.44%

From ChEMBL document CHEMBL3988442, “University of Dundee, Small-Polar-MMV Screening Library” (2021).